Data taken from paper PMC6238616.
Results are given in words; binding and its absence hold for the method and conditions named. In cells and extracts the contact can be indirect. For part of these data: Where a sequence is shown, tags or fusion partners need not be part of it.

Chains of the proteins cited; added tags and fusions are not shown.
UniProt P46379: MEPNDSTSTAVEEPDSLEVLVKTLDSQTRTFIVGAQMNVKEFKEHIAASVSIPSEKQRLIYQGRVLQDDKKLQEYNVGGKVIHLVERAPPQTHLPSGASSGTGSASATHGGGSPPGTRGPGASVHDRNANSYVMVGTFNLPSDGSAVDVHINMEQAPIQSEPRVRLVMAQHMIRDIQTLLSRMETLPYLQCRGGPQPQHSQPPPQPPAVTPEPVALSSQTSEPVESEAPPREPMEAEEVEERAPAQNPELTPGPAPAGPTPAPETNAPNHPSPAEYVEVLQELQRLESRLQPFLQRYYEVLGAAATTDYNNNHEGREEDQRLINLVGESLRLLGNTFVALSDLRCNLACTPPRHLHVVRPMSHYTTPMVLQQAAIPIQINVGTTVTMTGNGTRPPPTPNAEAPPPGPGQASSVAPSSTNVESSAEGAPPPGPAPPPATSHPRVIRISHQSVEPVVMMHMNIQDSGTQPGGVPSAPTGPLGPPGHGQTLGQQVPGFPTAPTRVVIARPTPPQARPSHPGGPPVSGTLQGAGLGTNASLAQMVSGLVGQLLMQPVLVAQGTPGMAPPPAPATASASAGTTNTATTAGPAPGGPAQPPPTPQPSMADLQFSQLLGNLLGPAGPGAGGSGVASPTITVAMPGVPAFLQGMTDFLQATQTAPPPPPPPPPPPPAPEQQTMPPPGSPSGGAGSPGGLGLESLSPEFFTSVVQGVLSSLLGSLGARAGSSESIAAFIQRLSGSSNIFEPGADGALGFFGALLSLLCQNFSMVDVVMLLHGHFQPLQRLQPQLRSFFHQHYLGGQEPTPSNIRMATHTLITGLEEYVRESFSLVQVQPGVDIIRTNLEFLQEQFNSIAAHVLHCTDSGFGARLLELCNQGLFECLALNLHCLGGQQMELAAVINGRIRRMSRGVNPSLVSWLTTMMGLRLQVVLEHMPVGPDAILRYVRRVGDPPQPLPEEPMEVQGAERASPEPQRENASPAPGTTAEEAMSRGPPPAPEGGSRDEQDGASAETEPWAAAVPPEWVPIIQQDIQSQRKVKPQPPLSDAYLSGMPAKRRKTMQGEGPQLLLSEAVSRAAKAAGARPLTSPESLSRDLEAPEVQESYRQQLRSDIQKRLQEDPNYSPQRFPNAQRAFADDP
UniProt Q99873: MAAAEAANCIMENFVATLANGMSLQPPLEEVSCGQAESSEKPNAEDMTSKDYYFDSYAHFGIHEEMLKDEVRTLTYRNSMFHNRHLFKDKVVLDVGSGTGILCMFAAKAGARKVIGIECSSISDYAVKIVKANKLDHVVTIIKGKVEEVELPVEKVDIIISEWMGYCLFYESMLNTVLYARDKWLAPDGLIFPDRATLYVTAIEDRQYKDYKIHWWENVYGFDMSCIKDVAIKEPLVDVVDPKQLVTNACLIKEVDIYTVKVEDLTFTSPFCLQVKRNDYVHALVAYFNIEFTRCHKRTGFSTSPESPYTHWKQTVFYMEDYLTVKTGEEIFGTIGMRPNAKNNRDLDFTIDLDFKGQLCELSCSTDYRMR
UniProt Q16637: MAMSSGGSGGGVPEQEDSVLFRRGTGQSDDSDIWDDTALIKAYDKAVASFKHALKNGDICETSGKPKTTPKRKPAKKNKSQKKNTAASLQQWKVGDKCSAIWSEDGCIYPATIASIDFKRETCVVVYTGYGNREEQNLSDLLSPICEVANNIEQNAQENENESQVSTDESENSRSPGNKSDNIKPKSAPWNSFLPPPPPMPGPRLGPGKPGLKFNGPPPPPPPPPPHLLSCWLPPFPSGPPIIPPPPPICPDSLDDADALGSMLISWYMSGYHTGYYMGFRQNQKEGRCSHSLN

Tests used:
Assay in all cases: co-IP; LUMIER-type assay, large mutant SYNCRIP experiment (Fig 4): protein A-tagged SYNCRIP WT, R to K mutants and controls as bait, SMN1-FIREFLY or PRMT1-FIREFLY as prey, co-transfected in HEK293 cells; IgG-coated plates; Log(2) signal with background of PA untransfected wells subtracted
[1] = target: BAT3, noninteracting control, protein A fusion (UniProt P46379)
[2] = target: T1, U2AF1, noninteracting control, protein A fusion (UniProt Q01081)
T1 sequence: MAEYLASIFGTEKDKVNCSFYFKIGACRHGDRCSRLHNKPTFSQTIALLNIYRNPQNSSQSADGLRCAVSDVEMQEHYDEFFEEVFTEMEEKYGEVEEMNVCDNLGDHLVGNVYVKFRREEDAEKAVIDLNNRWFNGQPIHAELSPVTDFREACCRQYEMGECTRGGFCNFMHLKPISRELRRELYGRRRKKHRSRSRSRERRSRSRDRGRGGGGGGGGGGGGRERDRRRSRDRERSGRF

[3] = target: T2, SPATA24, noninteracting control, protein A fusion (UniProt Q86W54)
T2 sequence: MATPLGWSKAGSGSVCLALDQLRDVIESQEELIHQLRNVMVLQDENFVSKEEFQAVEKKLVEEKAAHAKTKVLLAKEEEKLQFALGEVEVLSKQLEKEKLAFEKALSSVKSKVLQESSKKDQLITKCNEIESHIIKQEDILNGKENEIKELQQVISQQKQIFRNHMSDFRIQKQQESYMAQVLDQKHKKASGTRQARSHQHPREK

Measured: binding

PRMT1, LUMIER fusion (from UniProt Q99873 1-371) (enzyme)
no binding: all assays above

SMN1, wild type, LUMIER fusion (from UniProt Q16637 1-294)
no binding: all assays above
